The values that follow come from PubChem BioAssay AID2685 (National Center for Advancing Translational Sciences (NCATS), 2010).

This assay in a line: qHTS Assay for Lipid Storage Modulators in Drosophila S3 Cells.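 For cell number change: cells counted by Cell Tracker Red CMTPX staining in the red channel.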 The conditions noted are these: BODIPY lipid droplet fluorescence, 18-24 h; for cell number change: measured here: cell count max response, cells fed with added oleic acid. The procedure, abridged: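 Laser-scanning cytometry quantifies lipid droplet accumulation (500–530 nm total intensity; droplet/cell object ratio) in oleic acid-fed (400 uM added) Drosophila S3 cells treated with a concentration series. 20 uM Triacsin C defined 100% inhibition.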

Setting [1] is: measured here: lipid fluorescence (Fed channel) AC50, cells fed with added oleic acid.
Setting [2] is: measured here: cell number channel AC50, cells fed with added oleic acid.

Each structure is given as a SMILES string. Several values for one entry are separate records, joined by “and”; a condition that tells them apart may be missing. Equal values may be shown once. Some of the results follow. These are further read-outs of the screen, such as a control signal, another cell line or another target. No call is given for them. Most of these compounds were active or inconclusive in the main read-out, so they are no random draw. The note in brackets gives the kind of curve behind each potency; many fits are weak.

For the compound `O=C(Nc1ccc(Cl)cc1)N1CC2CC(C1)c1cccc(=O)n1C2` (configuration not stated), under setting [1], the AC50 (as a rule, the concentration giving half of the maximal activity seen) is 0.731 µM [falling, partial curve, poor fit].

For `COc1ccc(C2SCC(=O)Nc3c2c(=O)[nH]n3C2CCCCCC2)cc1` (configuration not stated), the cell number change is -22.1%.

`CC(Cc1ccccc1Sc1ccc(O)cc1)N(C)C` (configuration not stated): the cell number change was -23.2%. The AC50 under setting [2] is 0.259 µM [falling, full curve]. Moreover, the AC50 under setting [1] is 0.00517 µM [falling, full curve, poor fit].

As for `CCN(CC)N=O`, the cell number change was -45.9%. Further, the AC50 under setting [2] was 1.64 µM [falling, partial curve, poor fit].

Consider `NC(N)=N/N=C/c1ccc(N(c2ccccc2)c2ccccc2)cc1`, for which the cell number change was -61.9%. Moreover, the AC50 under setting [2] is 7.31 µM [falling, partial curve]. The AC50 under setting [1] is 9.2 µM [falling, partial curve].

Consider `COc1ccc(OC)c(CC(=O)N(C)C2CCCN(Cc3ccccc3F)C2)c1` (configuration not stated), for which the cell number change is -9.97%. Besides, the concentration at half-maximal activity (AC50) under setting [1] was 6.51 µM [rising, single point].

Regarding `CCc1c(C)nc(N)nc1N1N=C1SC`, the cell number change was determined as 57.8%. For the same compound, the concentration at half-maximal activity (AC50) under setting [2] is 29.1 µM [rising, single point].

`COC1=C[C@@H]2C3=C([C@@H]2C1=O)[C@@H](NC(C)=O)CCc1cc(OC)c(OC)c(OC)c13`: the cell number change is 16%. Also, the AC50 under setting [2] is 0.092 µM [rising, full curve, poor fit]. In addition, under setting [1], the concentration at half-maximal activity (AC50) was 0.116 µM [rising, full curve, poor fit].

As for `Cc1c(C=C2C(=O)N(C)C(=S)N(C)C2=O)c2ccccc2n1CC(=O)NCC1CCCO1` (configuration not stated), the cell number change is -13%. The AC50 under setting [1] was 16.4 µM [rising, partial curve].

As for `O=C(CCS(=O)(=O)c1ccc(Br)cc1)N1CCC2(CC1)OCCO2`, the cell number change is 3.79%. The half-maximal activity concentration (AC50) under setting [1] was 18.4 µM [falling, single point].

As to `C(#CCN1CCOCC1)COCC#Cc1ccccc1`, the AC50 under setting [1] was 0.58 µM [rising, single point].

For the compound `COC(=O)C1=C(c2ccc3ccccc3c2)C[C@@H]2CC[C@H]1N2C(=O)NCC1CC1`, the cell number change was -32%. Moreover, the AC50 under setting [2] was 1.3 µM [falling, partial curve]. In addition, the AC50 under setting [1] was 1.16 µM [falling, single point].

As for `NP(=O)(OCCCc1ccccc1)c1ccccc1` (configuration not stated), the cell number change came to 20.4%. The AC50 under setting [1] was 4.61 µM [falling, full curve].

As to `COc1ccc2c(c1)c(C(=O)C(C)N1CCCCC1)c(C)n2C` (configuration not stated), the cell number change was -16.2%. Also, the concentration at half-maximal activity (AC50) under setting [1] was 20.6 µM [falling, partial curve, poor fit].

Turning to `CCOC(=O)C1(CCOc2ccccc2)CCN(C2Cc3ccccc3C2)CC1`, the cell number change worked out at 16.2%. Moreover, the AC50 under setting [2] is 6.51 µM [falling, single point].

Regarding `O=c1c2ccccc2nc(-c2ccco2)n1-c1ccncc1`, the cell number change is -16.9%. Further, the concentration at half-maximal activity (AC50) under setting [1] is 16.4 µM [rising, partial curve, poor fit].

`Cc1ccc(S(=O)(=O)Oc2ccccc2C=C2C(=O)N(C)C(=O)N(C)C2=O)cc1`: the cell number change was -18.8%. In addition, the concentration at half-maximal activity (AC50) under setting [1] was 23.1 µM [falling, single point].

For `Cn1c(CN2CCN(C(=O)COc3ccccc3)CC2)nc2cc([N+](=O)[O-])ccc21`, the cell number change was found to be 38.6%. The AC50 under setting [2] was 14.6 µM [rising, partial curve]. Under setting [1], the half-maximal activity concentration (AC50) was 8.2 µM [rising, partial curve].

With `CCC(=O)c1cn(Cc2ccccc2C#N)c2ccccc12`, the cell number change is -1.68%. In addition, under setting [1], the half-maximal activity concentration (AC50) was 3.26 µM [rising, single point].

`CCC(CO)(C(=O)OC1CC2CCC(C1)N2C)c1ccccc1` (configuration not stated): the cell number change is -17.9%. In addition, under setting [1], the AC50 was 0.58 µM [rising, single point].

With `CN1C2CCC1CC(=NO)C2`, the cell number change was -3.87%. Under setting [2], the AC50 is 3.66 µM [rising, single point]. The AC50 under setting [1] was 2.91 µM [rising, single point].

For the compound `COc1cc(C2SCC(=O)Nc3c2c(C)nn3-c2ccccc2)cc(OC)c1OC` (configuration not stated), the cell number change stood at 52%. The AC50 under setting [2] was 1.3 µM [rising, full curve]. Further, under setting [1], the AC50 was 1.46 µM [rising, partial curve].

As for `O=C(Cc1ccccc1)OCc1ccccc1`, the cell number change is -0.388%. The half-maximal activity concentration (AC50) under setting [1] is 0.0058 µM [rising, full curve, poor fit].

`CCc1ccc(NC(=O)CN2CC(c3ccccc3)CC2=O)cc1` (configuration not stated): the cell number change was -0.387%.

On to `CCOP(=O)(OCC)C(Nc1ccc([N+](=O)[O-])cc1)c1ccc(Cl)cc1` (configuration not stated), for which, under setting [2], the concentration at half-maximal activity (AC50) is 18.4 µM [rising, single point].

In the case of `O=c1[nH]c(=O)n(Cc2ccccc2)c(O)c1/C=C1\C=Nc2ccccc21`, the cell number change was -4.67%. The AC50 under setting [2] was 0.0259 µM [falling, full curve, poor fit]. Under setting [1], the AC50 is 0.164 µM [falling, full curve].

Take `CCc1ccc(N2C(=O)NC(=O)/C(=C\c3cccn3CCOc3ccc(C(C)C)cc3)C2=O)cc1`: the cell number change was -13.8%.

Turning to `CCC(=Nc1ccc(OC)cc1OC)c1c(O)n(C)c(=O)n(C)c1=O`, the cell number change was -39.8%. Also, under setting [2], the AC50 is 7.31 µM [falling, partial curve, poor fit]. Under setting [1], the AC50 is 1.3 µM [rising, partial curve].

On to `Cc1ccc(OCC(=O)N2CCN(CC3CC4C=CC3C4)CC2)cc1` (configuration not stated), for which the cell number change was found to be 20.6%. Also, the AC50 under setting [1] was 0.651 µM [falling, full curve, poor fit].

On to `Cc1c(C(C)(C)C)s/c(=N/S(=O)(=O)c2ccccc2)n1C`, for which the half-maximal activity concentration (AC50) under setting [2] is 29.1 µM [falling, single point].

In the case of `COC(=O)C1=C(c2ccc(OC)c(OC)c2)C[C@@H]2CC[C@H]1N2C(=O)NCCOc1ccccc1Cl`, the cell number change amounted to 16.3%. In addition, the half-maximal activity concentration (AC50) under setting [1] was 2.31 µM [rising, full curve, poor fit].

Consider `CN(C)C(=S)SSC(=S)N(C)C`, for which the cell number change is -46.5%. For the same compound, the AC50 under setting [2] is 20.6 µM [falling, single point]. Under setting [1], the AC50 is 29.1 µM [falling, single point].

As to `Nc1ccc(C(=O)N/N=C2/CN3CCC2CC3)cc1`, the cell number change was determined as 36.2%. For the same compound, the half-maximal activity concentration (AC50) under setting [2] is 23.1 µM [rising, single point].

Regarding `CC(=O)N1N=C(c2cccnc2)OC1c1ccccc1Cl` (configuration not stated), the cell number change is -1.33%.

In the case of `CC(=NCc1cccnc1)c1c(O)n(-c2ccccc2)c(=O)[nH]c1=O`, the cell number change was -32.8%. Moreover, under setting [2], the concentration at half-maximal activity (AC50) is 29.1 µM [falling, single point].

In the case of `C=C(C)Cn1c(=O)n(CC2CS2)c2ccccc21` (configuration not stated), the cell number change came to 45.6%. Under setting [2], the AC50 was 9.2 µM [rising, partial curve, poor fit]. Besides, under setting [1], the AC50 is 13 µM [rising, partial curve].

Take `Cc1ccc(C)c(Cn2c(C(=O)O)c(C=O)c3ccccc32)c1`: the cell number change came out at 22.5%. For the same compound, under setting [1], the concentration at half-maximal activity (AC50) was 16.4 µM [rising, single point].

For the compound `COc1ccc2nc(NC(=O)CCc3nc(C4=CCN(C)CC4)no3)sc2c1`, the half-maximal activity concentration (AC50) under setting [1] is 6.51 µM [rising, single point].

As to `CN(C)c1ccc(CCN2CCOCC2)cc1`, the cell number change was 24.3%. The concentration at half-maximal activity (AC50) under setting [1] was 6.51 µM [rising, single point].

Regarding `O=C1NC(=S)N(c2ccc(F)cc2)C(=O)/C1=C/c1ccco1`, the cell number change was determined as 4.15%. Also, the AC50 under setting [1] was 0.326 µM [falling, single point].

On to `Cc1cc(C=C2C(=O)NC(=S)NC2=O)c(C)n1-c1ccc2c(c1)OCO2`, for which the cell number change was -22.2%. In addition, the AC50 under setting [1] was 23.1 µM [falling, partial curve].

For the compound `O=C1C2CCCC1C(N1CCCC1)CC2` (configuration not stated), the cell number change is -16.6%. The concentration at half-maximal activity (AC50) under setting [1] was 0.082 µM [falling, full curve, poor fit].

In the case of `CC(=O)N1N=C2C3CCN(CC3)C2C1c1ccc(Br)cc1` (configuration not stated), the cell number change was -19.9%. The AC50 under setting [1] was 1.46 µM [falling, full curve, poor fit].

As for `Cc1ccccc1OCCN=Cc1c(O)n(C)c(=O)n(C)c1=O`, the cell number change was -7.82%. In addition, the half-maximal activity concentration (AC50) under setting [1] is 29.1 µM [falling, single point].

With `COC(=O)C1C2c3ccccc3OC1(C)N=c1s/c(=C/c3cnn(C)c3)c(=O)n12` (configuration not stated), the cell number change amounted to 12.6%. The AC50 under setting [2] was 2.91 µM [rising, single point]. Further, the AC50 under setting [1] was 14.6 µM [rising, single point].

`Brc1ccc(Oc2ccc(Br)cc2Br)c(Br)c1`: the cell number change amounted to 15.5%. In addition, the AC50 under setting [1] is 0.116 µM [falling, single point].

Regarding `COc1ccc(C2c3c(nc(C)[nH]c3=O)Oc3c2c(=O)oc2ccccc32)cc1` (configuration not stated), the cell number change worked out at 13.3%. Besides, under setting [1], the half-maximal activity concentration (AC50) was 0.651 µM [rising, full curve, poor fit].

For the compound `CN1C(=O)N(C)C(=O)C2(Cc3cc(NC(=O)c4ccc(F)cc4)ccc3N3CCCC32)C1=O` (configuration not stated), the cell number change came to 21.8%. The AC50 under setting [2] was 4.61 µM [rising, single point]. For the same compound, the AC50 under setting [1] is 29.1 µM [rising, single point].

On to `CCOC(=O)c1c(N)n(CCN2CCOCC2)c2nc3ccccc3nc12`, for which the cell number change is 4.84%. Moreover, the AC50 under setting [2] is 5.17 µM [rising, partial curve]. For the same compound, the AC50 under setting [1] was 2.59 µM [rising, single point].

As for `C[C@@]1(CO)[C@H](O)CC[C@@]2(C)[C@H]1CC[C@H]1C[C@@H]3C[C@@]12CC[C@]3(O)CO`, the half-maximal activity concentration (AC50) reads like this: under setting [2], 0.206 µM [falling, full curve, poor fit]; under setting [1], 0.146 µM [falling, full curve].

As to `CCOP(=O)(OCC)C(NC(C)=O)C(=O)c1ccccc1` (configuration not stated), the AC50 under setting [2] was 0.184 µM [rising, full curve, poor fit].

For `C=CCN1C(=O)NC(=O)/C(=C\c2ccc(-c3ccccc3[N+](=O)[O-])o2)C1=O`, the cell number change is -35.1%. For the same compound, the concentration at half-maximal activity (AC50) under setting [2] is 6.51 µM [falling, single point]. The half-maximal activity concentration (AC50) under setting [1] is 4.11 µM [falling, single point].

Consider `O=c1[nH]c(=S)[nH]c(O)c1N=Nc1ccc(SC(F)F)cc1`, for which the cell number change stood at 0.874%. Besides, the AC50 under setting [1] was 0.00411 µM [falling, full curve, poor fit].

Turning to `CCCCCCn1c(=O)c(C(=O)Nc2cnccn2)c(O)c2ccccc21`, the cell number change was -34.4%. In addition, the AC50 under setting [2] was 32.6 µM [falling, partial curve, poor fit]. The AC50 under setting [1] is 11.6 µM [falling, partial curve, poor fit].

`Cn1nc(-c2ccc(OCC(=O)N3CCN(Cc4ccccc4)CC3)cc2)c2ccccc2c1=O`: the cell number change was determined as 0.203%. In addition, the AC50 under setting [2] is 6.51 µM [rising, single point]. Moreover, the AC50 under setting [1] was 6.51 nM [falling, full curve] and 6.51 µM [rising, single point].
